This note sets out measurements from doi:10.1101/330993.

Protein sequences, listed by entry. Tags and fused reporters are not part of them. Lines headed by an entry give the natural chain unless they say otherwise; changes in a name come on top.
UniProt Q9ERZ8: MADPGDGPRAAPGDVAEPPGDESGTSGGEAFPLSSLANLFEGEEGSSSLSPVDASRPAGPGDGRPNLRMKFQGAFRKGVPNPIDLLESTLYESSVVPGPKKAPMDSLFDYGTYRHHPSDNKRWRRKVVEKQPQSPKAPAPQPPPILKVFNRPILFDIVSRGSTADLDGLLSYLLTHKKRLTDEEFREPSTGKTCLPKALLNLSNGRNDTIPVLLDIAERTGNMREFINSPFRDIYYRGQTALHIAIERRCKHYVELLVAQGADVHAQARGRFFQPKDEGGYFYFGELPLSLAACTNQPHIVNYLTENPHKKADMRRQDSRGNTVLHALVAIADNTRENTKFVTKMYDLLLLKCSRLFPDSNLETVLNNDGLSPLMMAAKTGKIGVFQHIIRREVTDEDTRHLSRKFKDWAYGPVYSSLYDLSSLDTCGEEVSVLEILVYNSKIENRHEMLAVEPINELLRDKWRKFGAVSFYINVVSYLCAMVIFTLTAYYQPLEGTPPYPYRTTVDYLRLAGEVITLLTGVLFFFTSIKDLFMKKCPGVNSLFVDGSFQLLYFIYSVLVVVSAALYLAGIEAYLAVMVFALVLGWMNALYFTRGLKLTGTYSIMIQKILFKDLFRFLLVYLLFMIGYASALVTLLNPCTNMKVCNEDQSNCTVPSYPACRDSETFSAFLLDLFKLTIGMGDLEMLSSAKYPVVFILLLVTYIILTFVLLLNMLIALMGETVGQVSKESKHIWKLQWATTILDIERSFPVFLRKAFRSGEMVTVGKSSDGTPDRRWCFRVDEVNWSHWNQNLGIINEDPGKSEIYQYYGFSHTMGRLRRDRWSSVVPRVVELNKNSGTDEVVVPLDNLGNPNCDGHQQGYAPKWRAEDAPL

The target in one test is T1, His-tagged Mfn1 (UniProt Q8R4Z9).
T1 sequence: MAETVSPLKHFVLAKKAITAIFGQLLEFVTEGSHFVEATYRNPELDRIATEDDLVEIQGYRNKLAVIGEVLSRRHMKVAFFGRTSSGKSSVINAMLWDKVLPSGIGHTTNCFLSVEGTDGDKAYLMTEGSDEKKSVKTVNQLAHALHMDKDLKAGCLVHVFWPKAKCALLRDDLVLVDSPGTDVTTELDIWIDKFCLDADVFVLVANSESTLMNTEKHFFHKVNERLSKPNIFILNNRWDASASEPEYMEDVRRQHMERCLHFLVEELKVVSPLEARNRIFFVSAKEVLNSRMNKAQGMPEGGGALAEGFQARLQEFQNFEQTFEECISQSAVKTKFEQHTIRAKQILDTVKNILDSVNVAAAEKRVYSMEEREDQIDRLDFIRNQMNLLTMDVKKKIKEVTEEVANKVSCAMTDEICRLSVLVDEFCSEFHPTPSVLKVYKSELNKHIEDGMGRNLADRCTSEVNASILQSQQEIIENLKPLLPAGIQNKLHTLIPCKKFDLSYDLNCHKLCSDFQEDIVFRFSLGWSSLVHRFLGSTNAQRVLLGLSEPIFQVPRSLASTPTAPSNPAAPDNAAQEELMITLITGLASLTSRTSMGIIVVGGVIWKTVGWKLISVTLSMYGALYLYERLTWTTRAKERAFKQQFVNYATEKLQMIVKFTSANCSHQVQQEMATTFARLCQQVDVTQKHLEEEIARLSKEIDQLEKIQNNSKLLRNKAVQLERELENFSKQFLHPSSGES
In words: pull-down.

Another test deals with T2, His-tagged Mfn2 (UniProt Q8R500).
T2 sequence: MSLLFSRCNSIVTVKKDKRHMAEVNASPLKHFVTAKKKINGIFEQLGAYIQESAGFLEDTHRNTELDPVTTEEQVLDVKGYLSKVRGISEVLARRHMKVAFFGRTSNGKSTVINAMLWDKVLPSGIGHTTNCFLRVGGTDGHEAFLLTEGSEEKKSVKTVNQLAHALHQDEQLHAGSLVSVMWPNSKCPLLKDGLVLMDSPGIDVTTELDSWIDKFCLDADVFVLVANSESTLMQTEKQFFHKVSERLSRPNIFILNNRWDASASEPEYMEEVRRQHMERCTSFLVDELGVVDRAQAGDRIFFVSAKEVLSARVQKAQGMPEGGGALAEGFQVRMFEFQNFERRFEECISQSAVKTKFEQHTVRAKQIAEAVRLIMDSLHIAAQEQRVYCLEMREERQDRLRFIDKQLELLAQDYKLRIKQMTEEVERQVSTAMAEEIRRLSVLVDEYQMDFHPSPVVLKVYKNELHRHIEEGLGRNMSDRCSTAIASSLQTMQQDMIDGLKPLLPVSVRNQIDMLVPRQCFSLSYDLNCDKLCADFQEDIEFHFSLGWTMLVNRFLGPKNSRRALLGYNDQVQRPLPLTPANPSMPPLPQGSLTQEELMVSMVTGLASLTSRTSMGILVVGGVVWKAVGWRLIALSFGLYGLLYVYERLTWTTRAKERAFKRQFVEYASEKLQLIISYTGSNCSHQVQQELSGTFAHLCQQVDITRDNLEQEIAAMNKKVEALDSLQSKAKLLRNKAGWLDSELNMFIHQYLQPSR
Briefly: pull-down.

No constants are given. Whether binding was seen depends on the method and setting. Binding seen in cells or lysates may run through a third protein. Binding can be weak; no strength is given. Where a sequence is shown, tags or fusion partners need not be part of it.

In the case of “MBP-TRPV4-Ct (C-terminal cytoplasmic domain of TRPV4 fused with MBP) (from UniProt Q9ERZ8) (domain or fragment)”, the binding entry with His-tagged Mfn1 and in the test with His-tagged Mfn2 was “binds” in each case.
